In paper PMC3983159:
No constants are given. Whether binding was seen depends on the method and setting. Binding seen in cells or lysates may run through a third protein. Binding can be weak; no strength is given. Sequences can lack the tags named with a protein.

Target: GST-SsaE fusion protein (Salmonella enterica serovar Typhimurium)
Assay: pull-down; GST-SsaE immobilised on glutathione-Sepharose, incubated at 4°C for 2 h with E. coli lysate containing SseB-FLAG; washed five times with TBS pH 7.6; immunoblot with anti-GST and anti-FLAG; only the target purified

B1: SseB-FLAG fusion protein (protein, UniProt Q7BVH7 1-196)
chain: MSSGNILWGSQNPIVFKNSFGVSNADTGSQDDLSQQNPFAEGYGVLLILLMVIQAIANNKFIEVQKNAERARNTQEKSNEMDEVIAKAAKGDAKTKEEVPEDVIKYMRDNGILIDGMTIDDYMAKYGDHGKLDKGGLQAIKAALDNDANRNTDLMSQGQITIQKMSQELNAVLTQLTGLISKWGEISSMIAQKTYS
binding: binds
